Molecules are shown by their SMILES.

A short description of this data set: Plasma glucose of diabetic rats (STZ-injected SHRSP). The data set is classed as in vivo, rat. As to the method: • Compound 1: (±)-1-(cyclohexyloxycarbonyloxy) ethyl-2-ethoxy-1-[[2′-(1H-tetrazol-5-yl)biphenyl-4-yl]methyl]-1H-benzimidazole-7-carboxylate (Compound 1) Method: Streptozotocin (STZ) was intravenously injected at a dose of 30 mg/kg to 10-week old male rats (Stroke-Prone Spontaneously Hypertensive Rat:SHRSP). When 9 weeks had passed since the injection of STZ, the blood sugar values of the rats were measured. The rats were divided into 3 groups, that is, a group before the administration, a solvent-administered control group and an administered group with the compound 1 (3 mg/kg/day, p.o.). Four weeks after, the blood sugar values and the retinal potentials were measured, and then, the rats were killed by bleeding by discission of the aorta abdominalis under deep ether anesthetization so as to remove the eyeball. A suspension of the compound 1 in a 0.5% methylcellulose-containing physiological saline was orally administered to the rats once a day for 4 weeks. On the other hand, 23-week old SHRSP rats were used as an untreated group.
The blood sugar value was measured by the following method. The blood was collected from the veins of the tails using heparin and subjected to centrifugation to collect the blood plasma. The amount of glucose in the plasma was measured using an autoanalyzer (Model 7070, manufactured by Hitachi Seisakusho).

For the molecule `CCOc1nc2cccc(C(=O)OC(C)OC(=O)OC3CCCCC3)c2n1Cc1ccc(-c2ccccc2-c2nnn[nH]2)cc1` (racemic) [Compound 1, (±)-1-(cyclohexyloxycarbonyloxy) ethyl-2-ethoxy-1-[[2′-(1H-tetrazol-5-yl)biphenyl-4-yl]methyl]-1H-benzimidazole-7-carboxylate], the Plasma glucose (STZ-diabetic SHRSP rats, 3 mg/kg/day p.o. once a day for 4 weeks, n = 4, average ± standard deviation) stood at 525 ± 35 mg/dL. Also, the “Concentration of glucose in the plasma, in words” value (compared with the group before the administration and the control group, 3 mg/kg/day p.o., 4 weeks) is on record as “no difference in concentration”.

These data come from US7064141B1, “Method for preventing, treating or inhibiting development of simple retinopathy and preproliferative retinopathy” (Takeda Pharmaceutical Company Limited, priority 1999, dated 2006).
